Measurements reported in PubChem BioAssay AID1159578 (Peter MacCallum Cancer Centre, 2015)

Purpose: 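siRNA pools altering how lymphatic endothelial cells close a scratch wound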 (primary screen)
Cell system: human lymphatic endothelial cells
Reagents: siRNA pool against human genes, 40 nM
Timing: 48 h after transfection
Detection: 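High-content imaging of dye-stained cells in a scratch assay measures filled wound area and nuclei per well; duplicate means given as ratio to mock and robust z-score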
Direction: migration robust z-score: higher = faster migration into the scratch; migration relative to mock: higher = more scratch area covered than mock; nuclei per well: higher = more cells in the well
Rule for the call: 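Migration changed when robust z exceeds 2 or falls below -2 and mean nuclei number is at least 3300; otherwise not called changed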
Meaning of the calls: active = migration changed; inactive = no migration change, or too few cells
In all, the deposit lists about 18,000 reagents; this is an unselected part. Of all reagents, about 1,030 (5.7%) are marked active. 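Inactive calls also include pools with fewer than 3300 nuclei, whose migration was not assessed.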 Raw values are not corrected between plates. A number with no mark means an inactive call. No sequences are given here.

| gene | PubChem SID | migration robust z-score | migration class with cell-count check | migration relative to mock | nuclei per well, duplicate mean |
| --- | --- | --- | --- | --- | --- |
| HLTF | SID255352517 | 1.46 | migration z between -2 and 2; enough cells | 1.08 | 5401 |
| AHRR | SID255359418 | 1.24 | migration z between -2 and 2; enough cells | 1.21 | 5744 |
| ABCB6 | SID255354775 | 1.84 | migration z between -2 and 2; enough cells | 1.16 | 6525 |
| OR52I2 | SID255363190 | 0.88 | migration z between -2 and 2; enough cells | 1.12 | 5842 |
| MYL3 | SID255351109 | 0.21 | migration z between -2 and 2; enough cells | 0.84 | 4104 |
| TNK1 | SID255353756 | -2.1 (active) | migration z below -2; enough cells | 0.4 | 3440 |
| DDB2 | SID255349260 | 1.03 | migration z between -2 and 2; enough cells | 1 | 6269 |
| SGCE | SID255353914 | -0.35 | migration z between -2 and 2; enough cells | 0.8 | 5374 |
| CYP39A1 | SID255357634 | -1.04 | migration z between -2 and 2; enough cells | 0.6 | 5146 |
| PIWIL1 | SID255354160 | 0.88 | migration z between -2 and 2; enough cells | 0.98 | 6177 |
| ATP5MC1 | SID255348466 | 0.81 | migration z between -2 and 2; enough cells | 1.09 | 3854 |
| CYP27C1 | SID255365051 | 0.8 | migration z between -2 and 2; enough cells | 0.96 | 3766 |
| SMAP1 | SID255359743 | -0.01 | migration z between -2 and 2; enough cells | 0.88 | 5221 |
| EFNA1 | SID255349441 | -0.1 | migration z between -2 and 2; enough cells | 0.86 | 6074 |
| FAM50A | SID255354059 | 0.92 | migration z between -2 and 2; enough cells | 1.12 | 5832 |
| MCU | SID255361840 | -1.09 | migration z between -2 and 2; enough cells | 0.6 | 5260 |
| CNTROB | SID255362391 | -0.19 | migration z between -2 and 2; enough cells | 0.84 | 4152 |
| CKM | SID255348937 | -3.04 (active) | migration z below -2; enough cells | 0.22 | 5234 |
| PAPOLA | SID255355441 | 1.06 | migration z between -2 and 2; enough cells | 1.01 | 5396 |
| TRAPPC13 | SID255360620 | -0.32 | migration z between -2 and 2; enough cells | 0.8 | 6300 |
| MAGEA2 | SID255350846 | -0.09 | migration z between -2 and 2; enough cells | 0.86 | 5059 |
| ZDHHC16 | SID255361302 | -1.48 | migration z between -2 and 2; enough cells | 0.5 | 4945 |
| KLK14 | SID255357314 | -0.57 | migration z between -2 and 2; enough cells | 0.7 | 4849 |
